Values quoted from earlier work, collected in patent publication US6881752B2 (University of Alabama, priority 1998, dated 2005).
Some results were stated once for a whole list of compounds, not compound by compound. Some compounds share one range, which may span the group rather than tell each member.

System: yeast
Settings: reported by Mirsky and coworkers; cited from earlier work

Substance: [Cr3O(O2CCH3)6 (H2O)3]Cl [compound 2]
- enhancement of carbon dioxide production by yeast: 15-20%
